Results are given as percent effect. The controls that fix the scale are not given in the record; negative values are as filed. Compounds were drawn at random from those tested, without regard to their results.

A: 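Growth of Mycobacterium tuberculosis over 3 days (7H9 medium with glucose and tyloxapol); the read-out is not stated. Tested at 500 µM. Higher reads as more growth inhibition (inferred: compounds with an IC50 in retests scored well above the rest). About 18,000 compounds were tested under these conditions; 7.9% (about 1,400) showed 50% or more at least once.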
B: 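Phenotypic screen: M. tuberculosis growth, cholesterol and DPPC medium, 4 days; the read-out is not stated. Tested at 500 µM. Direction is inferred from retests: higher values go with more growth inhibition. About 18,000 compounds were tested under these conditions; 5% (about 900) showed 50% or more at least once.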

| Compound | A | B |
|---|---|---|
| `COc1ccc(CN2CCC(NC(C)=O)CC2)cc1F` | 18.89 | 3.924 |
| `O=C(NCc1ccccc1)N1CCNCC(O)C1` (centres undefined) | 1.735 | -16.47 |
| `O=C1NCCCC1NCc1cccc2c1OCCCO2` (centres undefined) | 45.46 | 29.7 |
| `CN1C(=O)c2ccc(C(=O)Nc3nccs3)cc2C1=O` | -3.813 | -10.4 |
| `CS(=O)(=O)NCc1ccc(CN2CCCC2=O)cc1` | 4.31 | 6.206 |
| `COC(=O)c1cc(NC(=O)CN(C)C)ccc1C` | 30.4 | 20.78 |
| `Cc1ccc(S(=O)(=O)NCC(=O)NC2CC2)cc1C` | 31.37 | 1.268 |
| `CCOc1ccc(C(=O)N2CCC(N)CC2)cc1` | 11.09 | -2.44 |
| `Cc1cc(CN)sc1C` | 20.65 | 17.73 |
| `CCN(C(=O)CSc1ncccn1)C1CCS(=O)(=O)C1` (centres undefined) | 11.83 | 8.145 |
| `OC[C@@H]1CNC[C@H]1C1CCN(Cc2ccco2)CC1` | 9.798 | -1.626 |
| `CC(O)(C1CCNCC1)C(F)(F)F` (centres undefined) | 23.34 | 3.374 |
| `Cn1cc(CCCNC(=O)COc2cccnc2)cn1` | 42.16 | 9.683 |
| `NS(=O)(=O)Cc1ccc(CNC(=O)c2ccoc2)cc1` | 10.44 | -1.148 |
| `CC(C)N(C)C(=O)C1CC(=O)N(C2CCCC2)C1` (centres undefined) | -0.6628 | -8.315 |
| `NC(=O)CN1CCC(NS(=O)(=O)c2cccs2)CC1` | 29.47 | 10.7 |
| `c1cnc2c(c1)NCCCN2` | 3.069 | -4.489 |
| `O=C(CC1NCCNC1=O)OCc1ccccc1` (centres undefined) | 7.69 | 6.906 |
| `COCC(=O)N(Cc1ccco1)CC(F)(F)F` | 6.519 | -0.5808 |
| `COc1c(C)cnc(CN2CCOCC2C)c1C` (centres undefined) | 0.9812 | -10.16 |
| `CCN1CCN(C(=O)NCc2ccccc2OC)CC1` | 6.59 | 15.82 |
| `CCOc1ccc(NC(=O)[C@H](C)N(C)C)cc1CO` | -2.142 | -14.32 |
| `N#Cc1ccc(CN2CCCSCC2)o1` | 32.69 | 34.93 |
| `N#CCC1(O)CN(Cc2ccc(C#N)o2)C1` | -4.175 | -8.545 |
| `CC(Cn1cncn1)NCc1ccccc1F` (centres undefined) | 22.76 | 26.49 |
| `O=C(NCC1(O)CCNC1)Nc1ccccc1Cl` (centres undefined) | 8.399 | -4.552 |
| `Cc1c[nH]c(C(=O)NC2CCN(CC(N)=O)CC2)n1` | -3.905 | -4.304 |
| `C=C(C)CN(CC)C(=O)Cn1ccccc1=O` | 29.77 | 12.35 |
| `OCCOCCNCC(O)COCc1ccccc1Cl` (centres undefined) | 67.41 | 32.57 |
| `CCS(=O)(=O)C(C(=O)N1CCCCC1)c1ccccc1` (centres undefined) | 1.885 | -3.73 |
| `CN(C)c1nc(C[S+]([O-])Cc2ccccc2)ns1` (centres undefined) | 49.34 | 43.51 |
| `Cc1nccn1CCCN1CCC2(C1)CN(C)C(=O)O2` (centres undefined) | 2.399 | -3.451 |
| `CN(Cc1ccon1)C(=O)C1COc2ccccc2C1` (centres undefined) | 40.56 | 26.29 |
| `NCCc1noc2ccccc12` | 5.4 | 5.878 |
| `Cc1nc(CN2C(=O)CC3(CCSC3)C2=O)cs1` (centres undefined) | 18.5 | 5.034 |
| `Nc1nc(CNC(=O)CN2CCCCCC2)cs1` | 2.24 | -0.5567 |
| `CC(=O)N1CCC(N2CCC3(CC2)[C@H](O)C[C@@H]3O)CC1` | -5.121 | -18.29 |
| `CC(C)NC(=O)c1cccc(C(N)=O)c1` | -2.184 | -8.971 |
| `O=C(c1ccc(CN2CCCC2)cc1)N1CCOCC1` | -8.263 | -1.457 |
| `CCOC(=O)C(C)(C)N(C)CC(=O)NCc1ccco1` | 13.24 | -10.3 |
| `CN(c1ncccc1CNS(C)(=O)=O)C1CCCCC1` | 29.12 | 11.59 |
| `CC(NS(=O)(=O)N(C)C1CCCCC1)c1ccccn1` (centres undefined) | 76.59 | 40.36 |
| `O=C1COc2ccc(NC(=O)c3ccccc3)cc2N1` | -5.45 | -12.14 |
| `CC1CCN(CC(=O)NCC2CCCO2)CC1` (centres undefined) | 42.85 | 18.13 |
| `O=S(=O)(CC1CCOC1)N1CCN(CCO)CC1` (centres undefined) | -15.82 | -13.33 |
| `NC(=O)NC(=O)CN(CC1CCOC1)C1CC1` (centres undefined) | -4.487 | -15.46 |
| `CC(C)CN1CCNC(=O)C1` | 1.014 | -2.494 |
| `O=C(NC1CCCOc2ccccc21)c1ccncc1` (centres undefined) | 51.07 | 32.68 |
| `NC(=O)c1cc(N)cs1` | -34.45 | -40.47 |
| `CN(C(=O)OC(C)(C)C)C1CCCNC1` (centres undefined) | 18.12 | 7.914 |
| `Cc1ccc(CCNC(=O)CSCCN2CCCC2)o1` | 53.81 | 23.42 |
| `CCNC(=O)c1cc2ccc(OC)cc2[nH]1` | 53.23 | 43.97 |
| `NCCC(=O)Nc1ccccn1` | 1.869 | -1.554 |
| `COCC(C)(CCO)NCC(=O)Nc1ccccc1I` (centres undefined) | 60.8 | 38.7 |
| `CNCC1(O)CCC1` | -1.809 | 3.004 |
| `C[C@@]1(O)CCN(CCS(=O)(=O)c2ccccc2)C[C@@H]1O` | 41.57 | 34.96 |
| `O=C(NCCCN1CCCCC1CO)c1cnn[nH]1` (centres undefined) | -1.211 | 3.018 |
| `CC(=O)Nc1cccc(CN(C)CCC(C)O)c1` (centres undefined) | 13.95 | -6.986 |
| `CC(=O)NCC1CCN(c2cccc(C(C)O)n2)CC1` (centres undefined) | 7.266 | 8.367 |
| `O=C1CC(C(=O)NCCNC(=O)c2ccccc2)CN1` (centres undefined) | -7.705 | -8.857 |
| `CNCC1CCCN1S(=O)(=O)c1ccccc1` (centres undefined) | 8.643 | 13.93 |

The first 3 entries again:

{"compound": "COc1ccc(CN2CCC(NC(C)=O)CC2)cc1F", "A": 18.89, "B": 3.924}
{"compound": "O=C(NCc1ccccc1)N1CCNCC(O)C1", "stereo": "centres undefined", "A": 1.735, "B": -16.47}
{"compound": "O=C1NCCCC1NCc1cccc2c1OCCCO2", "stereo": "centres undefined", "A": 45.46, "B": 29.7}

Source: ChEMBL document CHEMBL3988442, “University of Dundee, Small-Polar-MMV Screening Library” (2021).